Experimental findings from patent US20140088023A1 are described below.

Results are given in words; binding and its absence hold for the method and conditions named. Binding seen in cells or lysates may run through a third protein. Some results given as binding are weak or reduced against the parent protein; the word gives no strength.

The target of assay [1] is T1, soluble guanylyl cyclase alpha 1 (sGCα1) (UniProt Q02108).
T1 sequence (looked up): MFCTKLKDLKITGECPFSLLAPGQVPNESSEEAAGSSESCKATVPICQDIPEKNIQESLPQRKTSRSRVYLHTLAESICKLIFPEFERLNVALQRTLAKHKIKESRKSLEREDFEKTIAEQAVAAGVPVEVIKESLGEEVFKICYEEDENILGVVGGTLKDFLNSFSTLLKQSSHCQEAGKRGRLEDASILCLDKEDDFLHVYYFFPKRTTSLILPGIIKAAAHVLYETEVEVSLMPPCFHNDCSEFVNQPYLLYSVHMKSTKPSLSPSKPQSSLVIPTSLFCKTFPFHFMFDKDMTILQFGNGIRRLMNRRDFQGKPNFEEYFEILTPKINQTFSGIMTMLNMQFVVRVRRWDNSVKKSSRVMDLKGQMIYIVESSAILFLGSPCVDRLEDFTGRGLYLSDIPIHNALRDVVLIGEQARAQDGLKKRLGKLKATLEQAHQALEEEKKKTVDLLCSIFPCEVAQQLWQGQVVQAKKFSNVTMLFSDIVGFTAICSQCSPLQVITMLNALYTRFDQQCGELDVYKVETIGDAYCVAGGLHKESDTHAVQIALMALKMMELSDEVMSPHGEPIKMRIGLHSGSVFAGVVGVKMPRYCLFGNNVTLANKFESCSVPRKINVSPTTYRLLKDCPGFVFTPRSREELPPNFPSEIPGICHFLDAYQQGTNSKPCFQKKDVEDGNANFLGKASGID
The experiment in a line: co-IP with anti-sGCα1 antibody from LNCaP cytoplasmic extract, Western blot. For orientation: A western blot detects proteins with antibodies after separation by electrophoresis.

In assay [2] the target is T1, soluble guanylyl cyclase alpha 1 (sGCα1). The experiment in a line: co-IP with anti-sGCα1 antibody of mixed E. coli extracts, Western blot for p53.

With p53 (from UniProt P04637 1-393), the binding result in assay [1] and in assay [2] was “binds” in each case.
